In patent US20180111993A1:
Results are given in words; binding and its absence hold for the method and conditions named. Some binding calls cover weakened binding; strength is not graded here.

Legend:
[1] = target: chimeric soluble CD33-Mouse Fc (mouse); assay: flow cytometry of transfected 293T cells stained with soluble CD33-mouse Fc
[2] = target: chimeric soluble CD33-Mouse Fc (mouse); assay: flow cytometry of transfected 293T cells stained with soluble CD33 fused with mouse Fc chain, then anti-mouse Fc-APC
[3] = target: chimeric soluble CD33-Mouse Fc (mouse); assay: flow cytometry of transduced PBMCs stained with recombinant CD33-Fc

Measured: binding

B1: anti-CD33 CAR of the CD19:CD33 CAR construct (flow cytometry staining experiments) (protein, not shown: large carriers)
chain: RCDIQMTQSPSSLSASVGDRVTITCRASEDIYFNLVWYQQKPGKAPKLLIYDTNRLADGVPSRFSGSGSGTQYTLTISSLQPEDFATYYCQHYKNYPLTFGQGTKLEIKRSGGGGSGGGGSGGGGSGGGGSRSEVQLVESGGGLVQPGGSLRLSCAASGFTLSNYGMHWIRQAPGKGLEWVSSISLNGGSTYYRDSVKGRFTISRDNAKSTLYLQMNSLRAEDTAVYYCAAQDAYTGGYFDYWGQGTLVTVSSM
binds: all assays above
